Source: patent US9193777B2 (Mayo Foundation for Medical Education and Research, priority 2009, dated 2015)

Test: Radioimmunoassay of plasma natriuretic peptides in family members
Parameters: species or system human
Conditions: plasma of family members heterozygous for the NPPA mutation, endogenous peptide

For “mANP: Full-length 40-amino acid mutant ANP: normal 28-amino acid mature peptide plus an anomalous carboxyl-terminus of 12 residues (SLRRSSCFGGRMDRIGAQSGLGCNSFRYRITAREDKQGWA; listed as Homo sapiens)”, the “plasma concentration of mutant peptide relative to wild-type ANP” value was 5-10 fold and the “plasma concentration of mutant peptide relative to wild-type ANP” value (listed as mutant peptide) was 5- to 10 fold.
